Results are given in words; binding and its absence hold for the method and conditions named. Each block holds one molecule with its values, some of them ahead of it.
Columns and labels:
[1] = target: GST tagged vinculin tail domain (GST-Vt; residues 879–1,066) (human) (UniProt P18206); experiment: pull-down; GST-Vt on GST-Sepharose beads, with or without PIP2; tail domains (MVt, MVt-ΔH1) or Vh2–Vh3 as negative control; SDS-PAGE and Western blot with HRP-conjugated αHis or αGST antibodies; both purified
[2] = target: T1, full-length human metavinculin (residues 1–1,134) (human), P18206; experiment: SEC; Hiload 26/60 Superdex 200 calibrated with molecular weight markers; without PIP2; both purified; conditions: remark: other sources report otherwise
T1 chain: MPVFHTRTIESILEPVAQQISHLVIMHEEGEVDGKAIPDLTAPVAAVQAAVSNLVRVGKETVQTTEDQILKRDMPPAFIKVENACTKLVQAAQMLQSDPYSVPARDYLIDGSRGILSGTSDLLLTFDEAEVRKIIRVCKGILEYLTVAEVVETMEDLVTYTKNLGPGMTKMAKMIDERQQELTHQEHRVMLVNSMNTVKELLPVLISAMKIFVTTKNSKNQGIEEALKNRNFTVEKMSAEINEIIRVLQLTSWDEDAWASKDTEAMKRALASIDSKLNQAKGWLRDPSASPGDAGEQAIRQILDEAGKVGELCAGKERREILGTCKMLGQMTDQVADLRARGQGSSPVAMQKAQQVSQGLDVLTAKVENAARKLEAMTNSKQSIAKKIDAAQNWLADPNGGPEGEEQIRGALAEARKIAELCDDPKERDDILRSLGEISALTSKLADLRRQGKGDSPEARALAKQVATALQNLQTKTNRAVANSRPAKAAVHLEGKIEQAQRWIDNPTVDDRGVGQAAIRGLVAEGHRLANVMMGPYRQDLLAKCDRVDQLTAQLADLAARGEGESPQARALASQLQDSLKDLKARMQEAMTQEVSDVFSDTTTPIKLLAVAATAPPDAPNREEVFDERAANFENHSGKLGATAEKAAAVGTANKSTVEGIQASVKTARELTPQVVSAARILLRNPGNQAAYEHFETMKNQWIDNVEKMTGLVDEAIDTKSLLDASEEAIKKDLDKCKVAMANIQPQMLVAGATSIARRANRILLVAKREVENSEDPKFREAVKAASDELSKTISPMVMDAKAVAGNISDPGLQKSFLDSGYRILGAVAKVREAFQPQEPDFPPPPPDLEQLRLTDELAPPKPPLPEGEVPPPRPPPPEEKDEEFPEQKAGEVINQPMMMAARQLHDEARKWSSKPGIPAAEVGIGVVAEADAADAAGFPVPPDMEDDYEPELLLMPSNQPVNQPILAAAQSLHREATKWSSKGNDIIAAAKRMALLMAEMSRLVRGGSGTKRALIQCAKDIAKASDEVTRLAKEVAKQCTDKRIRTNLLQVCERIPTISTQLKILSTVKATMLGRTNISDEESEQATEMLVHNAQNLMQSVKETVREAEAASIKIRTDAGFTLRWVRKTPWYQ

[3] = target: T1, full-length human metavinculin …; experiment: native gel or EMSA; native gel of the full-length proteins; for metavinculin-ΔH1′ and metavinculin-ΔH1ΔH1′ the peak fractions of each species from gel filtration; identities confirmed by Western blot; without PIP2; both purified; conditions: remark: other sources report otherwise

binding [1]: no binding
Molecule: truncated vinculin head domain (Vh2–Vh3; residues 260–718) (from UniProt P18206 260-718) (domain or fragment)

binding [2]: no binding | binding [3]: no binding
B1: full-length human metavinculin (residues 1–1,134), P18206 1-1134 (protein)
chain: T1 chain
